Assay results published in the supplement of paper PMC10735217.
Structures can show the parent of a compound that is named as a salt. This is one part of the list. Repeats in this data set agree poorly, so a single value says little.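 Human kidney-derived cells stably carry a construct in which eight TEAD-binding elements drive luciferase, measured by luminescence in a drug-repurposing library screen. A hit is any compound whose signal exceeds the plate mean by more than five robust Z scores.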

Test system: HEK293A TEAD-LUC reporter
Assay: TEAD-luciferase reporter activity (YAP activation), robust Z score vs plate; higher = stronger YAP/TEAD activation
Conditions: 24 h

Compound | TEAD-luciferase reporter activity (compound concentration: 200 nM) | TEAD-luciferase reporter activity (compound concentration: 2 uM) | TEAD-luciferase reporter activity (compound concentration: 10 uM)
CC[PH](CC)(CC)[Au][S][C@@H]1O[C@H](COC(C)=O)[C@@H](OC(C)=O)[C@H](OC(C)=O)[C@H]1OC(C)=O [auranofin] | inactive: 0.14 | inactive: -2.74 | inactive: -0.216
COc1ccc(CCN(C)CCCN2CCc3cc(OC)c(OC)cc3CC2=O)cc1OC [Zatebradine hydrochloride] | inactive: -0.521 | inactive: -0.451 | inactive: 0.398
CCC(CC)[C@H](NC(C)=O)[C@@H]1[C@H](O)[C@@H](C(=O)O)C[C@H]1NC(=N)N [Peramivir] | inactive: -0.789 |  | inactive: 0.0554
CC12CCCN1Cc1nnc(=O)c3cc(F)cc4c3c1C2=N4 (centres undefined) | inactive: -1.4 | inactive: -0.711 | inactive: -0.569
CNC(=O)CCN1CCN(CC/C=C2/c3ccccc3Sc3ccc(Cl)cc32)CC1 | inactive: -0.439 | inactive: 1.28 | inactive: 0.606
CNS(=O)(=O)Cc1ccc2[nH]cc(CCCN3CCN(c4ncncc4OC)CC3)c2c1 | inactive: -0.818 | inactive: 0.986 | inactive: -1.36
CCc1nc2c(C)cc(C)nc2n1Cc1ccc(-c2ccccc2S(=O)(=O)NC(=O)c2ccccc2)cc1 | inactive: -0.738 | inactive: -0.613 | inactive: 3.5
COC(=O)C1CCN(c2nc(N)c3cc(OC)c(OC)cc3n2)CC1 | inactive: -0.824 | inactive: 0.655 | inactive: -2.02
CC(C)Nc1nc2cc(Cl)c(Cl)cc2n1[C@H]1O[C@@H](CO)[C@H](O)[C@@H]1O [maribavir] | inactive: -2.23 | inactive: 0.175 | inactive: -0.723
CCCCCCCCOc1ccccc1CC(=O)NC(Cc1ccccc1)c1ccccc1 (centres undefined) | inactive: -0.971 | inactive: -0.514 | inactive: 2.54
Cc1ccc(C(C)C)cc2c(C)ccc1-2 | inactive: -1.15 | inactive: -0.783 | inactive: 0.603
COc1ccc(Nc2c(C(=O)O)cnc3ccc(C(=O)O)cc23)cc1 | inactive: -0.223 | inactive: 0.385 | inactive: 1.19
O=c1oc2cc(O)ccc2c2ccc(O)cc12 [Urolithin A] | inactive: 0.123 | inactive: 0.124 | inactive: 0.88
COCCOCCOCCOc1cccc(C2=N[C@@](C)(C(=O)O)CS2)c1O | inactive: 1.11 | inactive: -1.18 | inactive: 1.99
O=C(O)c1ccc(CCN2CCCC2)nc1 | inactive: -0.914 | inactive: -0.455 | inactive: -0.105
CC(C)n1nccc1-c1ncccc1COc1cccc(O)c1C=O | inactive: 1.17 | inactive: 1.02 | inactive: -1.09
CC(C)NC(=O)NS(=O)(=O)c1cnc(N)nc1N[C@H]1C[C@H]2CC[C@@H]1C2 | inactive: -0.407 | inactive: -0.238 | inactive: 2.1
Cc1c(Nc2ncccc2C(=O)O)cccc1C(F)(F)F [flunixin] | inactive: -0.99 | inactive: 3.15 | inactive: 3.86
CCOP(=O)(CCCCCCOc1ccc(F)c(OC)c1)OCC | inactive: 0.101 | inactive: 1.12 | inactive: 0.516
N/C(=N\O)c1ccc(N2CCC(Oc3ccccc3)CC2)nn1 [SCD1 inhibitors] | inactive: -0.356 | inactive: -0.0472 | inactive: 0.453
CCNCC[C@H](O)CNCCCCNC[C@@H](O)CCNCC | inactive: -2.03 | inactive: -1.51 | inactive: -0.486
NCC(=O)N[C@@H](Cc1ccc(O)cc1)C(=O)NCC(=O)O | inactive: -0.473 | inactive: -0.505 | inactive: -1.15
C=CC(=O)Nc1cc2c(Nc3ccc(F)c(Cl)c3)ncnc2cc1OCCCN1CCOCC1 [Canertinib dihydrochloride] | active: 5.5 | inactive: -1.5 | inactive: 3.81
CCN1Cc2nc(N3CCNCC3)ncc2C1=O | inactive: 0.114 | inactive: -1.26 | inactive: 3.56
C[C@@H](c1nc(-c2ccc(C#N)cc2)cs1)[C@](O)(Cn1cncn1)c1ccc(F)cc1F [Ravuconazole] | inactive: 0.343 |  | inactive: 0.134
COc1ccccc1N1CCN(CCCNc2cc(=O)n(C)c(=O)n2C)CC1 | inactive: -2.47 |  | inactive: -2.16

In a second layout: results already given
Compound,TEAD-luciferase reporter activity (compound concentration: 200 nM),TEAD-luciferase reporter activity (compound concentration: 2 uM),TEAD-luciferase reporter activity (compound concentration: 10 uM)
CC12CCCN1Cc1nnc(=O)c3cc(F)cc4c3c1C2=N4 (centres undefined),inactive: -1.4,inactive: -0.711,inactive: -0.569
CNC(=O)CCN1CCN(CC/C=C2/c3ccccc3Sc3ccc(Cl)cc32)CC1,inactive: -0.439,inactive: 1.28,inactive: 0.606
Cc1c(Nc2ncccc2C(=O)O)cccc1C(F)(F)F [flunixin],inactive: -0.99,inactive: 3.15,inactive: 3.86
NCC(=O)N[C@@H](Cc1ccc(O)cc1)C(=O)NCC(=O)O,inactive: -0.473,inactive: -0.505,inactive: -1.15

Remaining list, next part

Compound | TEAD-luciferase reporter activity (compound concentration: 200 nM) | TEAD-luciferase reporter activity (compound concentration: 2 uM) | TEAD-luciferase reporter activity (compound concentration: 10 uM)
COc1ccccc1N1CCN(CCCNc2cc(=O)n(C)c(=O)n2C)CC1 [urapidil] |  | inactive: -1.05 | 
CNC(=O)c1ccc2c(c1)S(=O)(=O)c1ccccc1C2=O | inactive: 1.83 | inactive: -1.07 | inactive: 2.68
O=C(c1ccccc1)c1cccc(NC(=O)c2ccn3c2CSC3c2cccnc2)c1 (centres undefined) | inactive: -1.75 | inactive: -1.15 | inactive: 0.517
CN1C(=N)N[C@@](C)(c2cc(NC(=O)c3ccc(F)cn3)ccc2F)CS1(=O)=O [Verubecestat] | inactive: 0.961 | inactive: -1.12 | inactive: -1.07
CNC(=O)NCCn1c(-c2ccc(N3CCOCC3)cc2)cs/c1=N/c1cccc(F)c1 | inactive: -1.2 | inactive: 0.605 | inactive: -1.37
CCOC(=O)C(C)(C)CCCCOc1ccc(OCCCCCn2ccnc2)cc1 | inactive: 2.43 | inactive: -0.566 | inactive: -0.137
CCCn1cnc(CC(CCCN)C(=O)O)c1 (centres undefined) | inactive: -1.5 | inactive: 0.115 | inactive: -0.176
CCOC(=O)c1cc(Br)c(N)c(CN(CC)CC)c1 | inactive: 0.301 | inactive: -0.259 | inactive: 3.47
COc1ccc2nc(COc3ccc(CC4SC(=O)NC4=O)cc3)n(C)c2c1 (centres undefined) | inactive: 0.0158 | inactive: -1.11 | inactive: 0.655
OC[C@@H]1O[C@@H](O[C@H]2O[C@H](CO)[C@@H](O)[C@H](O)[C@H]2O)[C@@H](O)[C@H](O)[C@H]1O [Trehalose] | inactive: -1.02 | inactive: -0.818 | inactive: -0.136
Cc1nccn1-c1sc(Nc2cnccn2)nc1-c1cccc(C#N)c1 | inactive: 0.0339 | inactive: 0.906 | inactive: -1.37
COC(=O)c1c(C)nc(C)c(C(=O)OC)c1-c1ccccc1[N+](=O)[O-] | inactive: -1.64 | inactive: -0.846 | inactive: 1.55
CC(=O)NC(Cc1ccc(C#N)cc1)C(=O)NC(C(=O)O)C1CCCCC1 (centres undefined) | inactive: -0.618 | inactive: -0.153 | inactive: -1.7
CO[C@H]1C[C@@H]2CC[C@@H](C)[C@@](O)(O2)C(=O)C(=O)N2CCCC[C@H]2C(=O)O[C@H]([C@H](C)C[C@@H]2CC[C@@H](OCCO)[C@H](OC)C2)CC(=O)[C@H](C)/C=C(\C)[C@@H](O)[C@@H](OC)C(=O)[C@H](C)C[C@H](C)/C=C/C=C/C=C/1C [Everolimus] | inactive: -0.336 | inactive: -1.02 | inactive: -0.377
CN1CCN(NS(=O)(=O)c2ccc(F)cc2)CC1 | inactive: -0.895 | inactive: -0.647 | inactive: 0.703
CCN(CC)CCNC(=O)c1cc(Cl)c(N)cc1OCCS(C)=O (centres undefined) | inactive: -1.02 | inactive: -0.0582 | inactive: -0.882
CCOC(=O)/C=C/[C@H](C[C@@H]1CCNC1=O)NC(=O)[C@@H](CC(=O)[C@@H](NC(=O)c1cc(C)on1)C(C)C)Cc1ccc(F)cc1 [AG-7088_:_ rupinavir] |  |  | inactive: 0.733
CCOC(=O)/C=C/[C@H](C[C@@H]1CCNC1=O)NC(=O)[C@@H](CC(=O)[C@@H](NC(=O)c1cc(C)on1)C(C)C)Cc1ccc(F)cc1 |  | inactive: 0.559 | 
COC(=O)N[C@H](C(=O)N[C@@H](Cc1ccccc1)[C@@H](O)CN(Cc1ccc(-c2ccccn2)cc1)NC(=O)[C@@H](NC(=O)OC)C(C)(C)C)C(C)(C)C [Atazanavir sulfate] | inactive: -0.481 |  | inactive: 1.49
COC(=O)N[C@H](C(=O)N[C@@H](Cc1ccccc1)[C@@H](O)CN(Cc1ccc(-c2ccccn2)cc1)NC(=O)[C@@H](NC(=O)OC)C(C)(C)C)C(C)(C)C [atazanavir sulfate] |  | inactive: 2.33 | 
C[C@H](NC(=O)CCC(F)(F)F)C(=O)N[C@@H]1C(=O)N(CCO)c2ncccc2-c2ccccc21 | inactive: -0.721 | inactive: -1.77 | inactive: -2.45
CC[C@H]1C2=NC(=C\c3c(C(C)=O)c(C)c4[n]3[Mg][n]3c5c(c(C)/c3=C/2)C(=O)[C@H](C(=O)OC)C=5C2=N/C(=C\4)[C@@H](C)[C@@H]2CCC(=O)OC/C=C(\C)CCCC(C)CCCC(C)CCCC(C)C)/[C@@H]1C (some centres undefined) | inactive: -0.939 | inactive: 1.05 | inactive: 1.11
C=Cc1c(C)c2[n]3c1=CC1=NC(=Cc4c(C)c(C(=O)[O-])c([n]4[Cu]3)C(CC(=O)[O-])=C3N=C(C=2)C(C)C3CCC(=O)[O-])C(CC)=C1C (centres undefined) | inactive: -1.28 | inactive: 1.57 | inactive: 0.733
COc1cc2c(cc1O)CC[C@@H]1[C@@H]2CC[C@]2(C)[C@@H](O)CC[C@@H]12 [2-Methoxyestradiol] | inactive: -0.389 | inactive: -0.921 | inactive: -0.518
CCCCCCCCC#CCC#CCC#CCCCC(=O)N1CCN(CCO)CC1 | inactive: -0.543 | inactive: -1.18 | inactive: 0.504
O=C1CCCN1CC(O)CN1CCN(c2ccccc2)CC1 (centres undefined) | inactive: 0.776 | inactive: -1.61 | inactive: -0.0912
